# Measurements reported in the supplement of paper PMC8256030.
# “And” between values parts separate entries of the source, which are not always exact repeats. Equal values may be shown once. Where a name gives a salt, the structure may show the parent alone. The list shows a part of the results. Repeats in this data set agree poorly, so a single value says little.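 HEK293T cells were given each compound shortly before transfection with a reporter in which red mCherry is followed by the SARS-CoV-2 frameshift element and then GFP in the −1 frame, so GFP appears only after frameshifting.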
# System: HEK293T
# Test: percent viability (nuclei count) relative to control; higher = more viable cells
# Conditions: 10 µM; 24 h
row,SMILES,percent viability
1,CC[C@@]1(O)C(=O)OCc2c1cc1n(c2=O)Cc2cc3c(CN(C)C)c(O)ccc3nc2-1,24.6%
2,CC(=O)[C@H]1CC[C@H]2[C@@H]3CC=C4C=C(OC5CCCC5)CC[C@]4(C)[C@H]3CC[C@]12C [quingestrone],173%
3,CCCOc1ccc(C(=O)CCN2CCCCC2)cc1 [propipocaine],113%
4,C[n+]1ccccc1C=NO [pralidoxime iodide],93.4%
5,CC(CN1c2ccccc2Sc2ccccc21)N(C)C (stereo not given) [promethazine],252% and 166%
6,CCN(CCCCOC(=O)c1ccc(OC)c(OC)c1)C(C)Cc1ccc(OC)cc1 (stereo not given) [mebeverine],136%
7,CCOC(=O)[C@H](CCc1ccccc1)N[C@@H](C)C(=O)N1CCC[C@H]1C(=O)O [enalapril],81.7% and 208%
8,NS(=O)(=O)c1cc2c(cc1Cl)NC(CSCc1ccccc1)NS2(=O)=O (stereo not given) [hydrobentizide],190%
9,CN1C(C(=O)Nc2ccccn2)=C(O)c2sc(Cl)cc2S1(=O)=O [Lorcam],200%
10,Cc1ncc(CO)c(C=O)c1O [Pyridoxal],294%
11,COc1cc(NS(=O)(=O)c2ccc(N)cc2)ncn1 [sulfamonomethoxine],228%
12,Oc1c(Br)cc(Br)c2cccnc12 [broxyquinoline],256%
13,CC(C)(O/N=C(\C(=O)N[C@@H]1C(=O)N2C(C(=O)[O-])=C(C[n+]3ccccc3)CS[C@H]12)c1csc(N)n1)C(=O)O,135%
14,OCc1ccccc1O[C@@H]1O[C@H](CO)[C@@H](O)[C@H](O)[C@H]1O,372%
15,N[C@@H](Cc1ccccc1)C(=O)O [phenylalanine],116%
16,O=C(Oc1ccc2c(c1)CCCN2C(=O)C(Cl)Cl)c1ccco1 [quinfamide],434%
17,CC(C)[N+]1(C)[C@@H]2CC[C@H]1C[C@@H](OC(=O)C(CO)c1ccccc1)C2 (stereo not given in full),98.3%
18,CO/N=C(\C(=O)N[C@@H]1C(=O)N2C(C(=O)O)=C(CSc3nnnn3C)CS[C@H]12)c1csc(N)n1,270%
19,C[C@@](Cc1ccc(O)c(O)c1)(NN)C(=O)O [carbidopa],259% and 308%
20,CO/N=C(\C(=O)N[C@@H]1C(=O)N2C(C(=O)O)=C(COC(N)=O)CS[C@H]12)c1ccco1,159%

# Filtered by structure: the entries above containing an aryl methoxy group (two)
row,SMILES,percent viability
6,CCN(CCCCOC(=O)c1ccc(OC)c(OC)c1)C(C)Cc1ccc(OC)cc1 (stereo not given) [mebeverine],136%
11,COc1cc(NS(=O)(=O)c2ccc(N)cc2)ncn1 [sulfamonomethoxine],228%

# Remaining list, next part.

row,SMILES,percent viability
1,CC(C(=O)O)c1ccc(-c2ccccc2)c(F)c1 (stereo not given) [flurbiprofen],302% and 144%
2,Cc1nc2ccccn2c(=O)c1CCN1CCC(C(=O)c2ccc(F)cc2)CC1 [pirenperone],124%
3,COc1ccc(/C=C/C(=O)c2ccc(OC)cc2OC)cc1 [metochalcone],284%
4,CCCC(C(=O)OCCN(CC)CC)(c1ccccc1)c1ccccc1,361%
5,C[N+](C)(C)CCOP(=O)(O)OP(=O)([O-])OC[C@H]1O[C@@H](n2ccc(N)nc2=O)[C@H](O)[C@@H]1O,150%
6,N=C(N)NCCC[C@@H](NC(=O)[C@@H]1CCCN1C(=O)[C@@H]1CSSCCC(=O)N[C@@H](Cc2ccc(O)cc2)C(=O)N[C@@H](Cc2ccccc2)C(=O)N[C@@H](CCC(N)=O)C(=O)N[C@@H](CC(N)=O)C(=O)N1)C(=O)NCC(N)=O,288%
7,C[N+](C)(C)[C@@H](Cc1c[nH]c(=S)[nH]1)C(=O)[O-] [Ergothioneine],217%
8,COc1cc(-c2ccc(=O)[nH]n2)ccc1OC(F)F [zardaverine],193%
9,Cc1ccc(F)cc1C(=O)Nc1ccc(C(=O)N2Cc3cccn3Cc3ccccc32)c(Cl)c1 [lixivaptan],184%
10,CC#CCn1c(N2CCC[C@@H](N)C2)nc2c1c(=O)n(Cc1nc(C)c3ccccc3n1)c(=O)n2C,403%
11,O=C1C2CC3CC1CC(O)(C3)C2 [idramantone],268%
12,COc1cc2nc(N3CCN(C(=O)C4CCCO4)CC3)nc(N)c2cc1OC (stereo not given) [Terazosin],246%
13,O=c1[nH]c2ccccc2c2cc(CO)nn12 [pirquinozol],212%
14,N=C(N)NC(=O)c1nc(Cl)c(N)nc1N [Amiloride],170%
15,CCN(CC)CCCN1c2ccccc2Sc2ccc(Cl)cc21 [chlorproethazine],312%
16,COCCCOc1ccnc(C[S+]([O-])c2nc3ccccc3[nH]2)c1C (stereo not given) [rabeprazole],144%
17,CC(=O)O[C@]1(C(C)=O)CC[C@H]2[C@@H]3C=C(Cl)C4=CC(=O)[C@@H]5C[C@@H]5[C@]4(C)[C@H]3CC[C@@]21C,133%
18,Clc1ccc2c(c1)CCc1cccnc1C2=C1CCNCC1 [desloratadine],280% and 164%
19,CN(C)CCC=C1c2ccccc2C(C)(C)c2ccccc21 [melitracen],264%
20,CCn1cc(C(=O)O)c(=O)c2cc(F)c(N3CCN(C)CC3)cc21 [Pefloxacine mesylate dihydrate],244%
